Measurements reported in PubChem BioAssay AID1508600 (Functional Genomics Laboratory (NCATS/FGL), 2020).
Hit rate of the full screen: of about 53,000 sequences, about 3,700 (7%) were called active.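 The calls were made as follows: active = gene knockdowns whose robust z-score for IL-1 alpha signal is at least 2 or at most -2, so actives lie on both sides; inactive = the rest.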 The list shows a part of the results.

Test: Components of the Cytosolic LPS Sensing Pathway: Gene Identification via Genome-wide siRNA Screen
Settings: RAW264.7 macrophages, IL-1a HTRF, actives lie on both sides, screened at 100 nM (by protocol), cells primed 5 h with Pam3CSK4 first
From the text: Non-canonical inflammasome activation by cytosolic LPS is a critical component of the host response to Gram-negative bacterial infection, however we lack a comprehensive understanding of the cellular processes that control this pathway. Here we describe a genome-wide siRNA screen to identify genes regulating the mouse macrophage IL-1 alpha response to cytosolic LPS.
RAW264.7 cells were maintained in complete DMEM media, comprising DMEM with 4.5 g/L glucose, 10% FBS (Gemini Bio-Products, West Sacramento, CA), 2 mM Glutamine (Lonza) and 20 mM HEPES (Lonza), hereafter complete DMEM.
The RNAi screen was conducted in 384-well format using the Ambion Silencer Mouse Genome siRNA Library (#4391425), which consists of three unique, nonoverlapping, nonpooled siRNAs for each of 17,000 gene targets. siRNA reagents ([…]) were stamped into 384-well white flat-bottom microplates (Corning, 3570) using a Velocity11 VPrep liquid handling system (Agilent) integrated into a BioCel robotic platform (Agilent) in columns 1-22, leaving columns 23-24 empty for negative (Ambion, Negative control #1) and positive (mouse Casp4) controls, respectively. The median value of each plate's negative control column was used to normalize sample wells, and the positive control was used to assess transfection efficiency and assay performance.
Lipofectamine RNAiMAX Transfection Reagent ([…]; Invitrogen) was added in […] serum-free, antibiotic-free media to plate wells using a Thermo Scientific Matrix WellMate and Microplate Stacker. Plates were incubated for 45 min at room temperature to allow for the sufficient formation of siRNA-lipid complexes. Cells were seeded at a density of 1x10^4 cells per well in 20 microL media containing 20% (vol/vol) FBS without antibiotics. The final concentration of siRNA in each well was 100 nM. Cells were cultured for 48h at 37 degrees C in 5% CO2 before addition of […] of TLR ligand Pam3CSK4 for 5 hours. The medium was then removed, replaced with […] growth media and cell were transfected with […] of LipidA and TransIT-TKO (Mirus) for 24 hour. At the end of the LipidA treatment, […] of supernatant was transferred to a 384 Greiner Bio-one non-binding low volume plate and […] of IL-1a HTRF reagent (Cisbio, 62MIL1APEH) was added and incubated at room temperature overnight. The plates were read on an EnVision plate reader (PerkinElmer). Cell viability was measured by adding 20ul Cell Titer Glo to the original plate and running a luminescence read on the EnVision. The quantified IL-1a signal for each siRNA gene-targeted well was divided by the median of the negative control wells and multiplied by 100 to achieve a negative control normalized value for each well/siRNA. This normalized value was then used to generate a robust z-score by first taking the log of each value and then by subtracting the median and dividing by the […].
In the case of GAAGCUGCACAUCACCAGCTT against Fam43a, the z-score is reported as inactive: 0.927.
For GCCUUAAGUGUUCAUGUAATT against Vhl, the z-score was inactive: -0.872.
For GGAAGCAUCUCAUUAUUCATT against Lamp2, the z-score was inactive: 0.0306.
With GGUAACUUCCCAGGAGGGATT against Bcl9 the z-score was inactive: 0.549.
In the case of GGGAGUUUCUUAUUCACACTT against Lgi1, the z-score is reported as inactive: -0.0481.
For CCCACUGCCAAGUACAAUGTT against Dmwd, the z-score was inactive: 1.44.
In the case of GGAGAUACAGAUGAAUGAATT against Atg16l1, the z-score is reported as inactive: -0.169.
For GGUGUAUAAUAUGAGAUAGTT against Rdx, the z-score was inactive: 0.0621.
For GGAGAACAAGGUGACUUGGTT against Irx1, the z-score was inactive: -0.0914.
In the case of CCAGAUUAACUACAAAUCCTT against Pten, the z-score is reported as inactive: -0.0127.
In the case of GGGACCCUGAGAAAAGACATT against Tln1, the z-score is reported as inactive: 0.442.
For GCCAAAUAGUUCCUUUCUGTT against Gatc, the z-score was inactive: 0.734.
In the case of GGAUUAUGGGAAUUAACUATT against Mpdz, the z-score is reported as inactive: 1.06.
In the case of GGAUGCAAUUAGGAAAUUATT against Heatr5b, the z-score is reported as inactive: -0.516.
With CCUGUACCUGCGUAUUCAATT against Grap the z-score was inactive: -1.63.
With CCACCAUGCAACCUCCUGATT against Acsl6 the z-score was inactive: -0.455.
In the case of GCAACACCUUAUGUUUCAUTT against Cab39, the z-score is reported as inactive: 1.68.
In the case of GGUGGUGGCAAAUAAAAUUTT against Smr2, the z-score is reported as inactive: -1.46.
With GGAACGACUACAAUGAACCTT against Lrr1 the z-score was inactive: -1.46.
For GGAUUGCUUUUGAGCAACATT against Ccdc125, the z-score was active: -2.05.
In the case of GGAAAAAUUAGACCGUGAGTT against Pcdhb4, the z-score is reported as inactive: -0.299.
With GGACUUGGUGGUAAUCGACTT against Fig4 the z-score was inactive: 0.433.
With GGAAGAGAAGUUCAUGAGCTT against Gabrr1 the z-score was inactive: -0.605.
In the case of GGCGGUUUCUUUUCAUUGGTT against Nhlh1, the z-score is reported as inactive: 0.326.
For GGAUUGAGAAAAUCUACAUTT against Tnfrsf8, the z-score was inactive: 0.505.
In the case of GCUCAUGCUCUUAUGUUAGTT against Vamp3, the z-score is reported as inactive: 0.353.
For GGCCGAAUAAUGCAUAUACTT against Ythdf2, the z-score was inactive: -1.59.
In the case of GGUUCAUAAAGACAAACCUTT against Vmn1r71, the z-score is reported as inactive: 0.568.
With GGGCUUCAAACCCACAGAATT against Nova2 the z-score was inactive: -1.19.
In the case of GGUAGCGAUGUUUUCUUAUTT against Nt5dc3, the z-score is reported as inactive: 1.66.
With GUGCAAUCCUUCUUCUUCCTT against Olfr166 the z-score was inactive: -1.36.
With GGAAGGUUUUACUCAGGCUTT against Vps50 the z-score was inactive: -1.06.
In the case of GGCUUCUUUGUCAUAGGAGTT against Olfr353, the z-score is reported as inactive: 0.287.
In the case of GGUCUUCAAAGAAAGGAUCTT against Farsb, the z-score is reported as inactive: -1.25.
In the case of GGAAGGUAACUGGAAGGAGTT against Snx4, the z-score is reported as inactive: 1.84.
With GGAGAAACAGCAAGUAUCUTT against Il21r the z-score was inactive: -0.308.
For GCAGAUAACUACUGCCACGTT against Pkd1l3, the z-score was inactive: -0.86.
In the case of GCAAUGUUCGCUUGAAACUTT against Septin10, the z-score is reported as inactive: 1.02.
With GGCAGCAUUACACUGAAUCTT against Slc36a4 the z-score was inactive: 0.436.
For GGCCAUUAACCAGUCUAUCTT against Cdhr5, the z-score was inactive: 0.977.
For GGAGCAAAGCUAAAUGUUGTT against Far1, the z-score was inactive: -0.476.
With GGUAUGCACCUGUAACUCATT against Kcnk1 the z-score was inactive: 1.48.
For GGGAUAUCCAAAGUCACGGTT against Capza3, the z-score was inactive: 0.305.
In the case of CCUACGUCAUUUCAGCACCTT against Hc, the z-score is reported as inactive: 0.356.
For GGAUUCUCCAUUCUCAGUGTT against Serinc2, the z-score was inactive: -0.353.
With GGGACCCUACAAAAUCAUUTT against Ganab the z-score was inactive: 0.467.
With GGACAGCUCUCUCCAUACATT against Tlr9 the z-score was inactive: 0.653.
With GGUCCUAUUUAUUAAUACCTT against Emid1 the z-score was inactive: -0.0264.
In the case of “GGAGGCUUUUCAGACCAAGTT against 3830406C13Rik”, the z-score is reported as inactive: 0.334.
For GGAGAAAAAAGUGAAACUCTT against Cntn4, the z-score was inactive: -1.41.
For GGCACAGAAAAUCUUCAAATT against Ap2a1, the z-score was inactive: 0.97.
In the case of CAAUAACACUGGUGCCGACTT against Adam34l, the z-score is reported as inactive: 1.73.
In the case of CCUCUCCCAUGUAGCUUACTT against Wdr38, the z-score is reported as inactive: 0.306.
In the case of GGUCCUUCAUUUGGUUACATT against Dtna, the z-score is reported as inactive: 0.812.
With GCUGGACCCUUAAGUGUAATT against Bmyc the z-score was inactive: 0.308.
In the case of GCAGGGAGGCAUCUUCUUUTT against Olfr3, the z-score is reported as inactive: -0.22.
With GGCUGGUACUUGAGUUCAATT against Soat1 the z-score was inactive: -0.00533.
In the case of GGAACAGUGCUUGUAUCAGTT against Clasrp, the z-score is reported as inactive: 0.675.
For CGGAACUCUGCCACAAGUUTT against Zfp36, the z-score was inactive: 1.27.
For CCAACAAUGAUUAAUCAGCTT against Meis1, the z-score was inactive: -1.38.
For GGAACCUUCAGAGCGACUUTT against Trib3, the z-score was inactive: 0.224.
In the case of GGAUCAUACCAAAGUACACTT against Cyp2a12, the z-score is reported as inactive: 1.32.
For GGUAUUUUGUUUUUUGGGUTT against Olfm3, the z-score was inactive: 0.0347.
In the case of CCUGAACGACAGAUUGGCATT against Krt20, the z-score is reported as inactive: -0.697.
For GUGUGCUAUGAGCAAUGCCTT against Sprr2a1, the z-score was inactive: -1.34.
For GGAAAAGUGGGUUGAAGUUTT against Ipp, the z-score was inactive: 1.5.
With GGAUUUCGGCUUUUUGAACTT against Bcas1 the z-score was inactive: 0.531.
In the case of CCAAAAGUCACGUUUCUCATT against Per2, the z-score is reported as active: -2.09.
In the case of GGGAGGUGUGGUAAACUGUTT against Dcaf8, the z-score is reported as inactive: -0.877.
With GGAGCAAUUUGAAGACUAUTT against Rab11fip4 the z-score was inactive: -0.0904.
In the case of GGAAAGCAAAAAAAACUGUTT against Tnfaip8, the z-score is reported as inactive: -1.68.
With GCUCGCAUUUCCAUAAUACTT against Taar2 the z-score was inactive: -0.805.
With GCAAGACGCACUGUUACUGTT against Fam214a the z-score was inactive: 0.196.
In the case of GGCCUCCUCUCACAAGUAUTT against Tubb3, the z-score is reported as inactive: 0.492.
With GGUGUCACGACAAACAUUCTT against Fam83h the z-score was inactive: -1.6.
With GGAUCUUAUUAUUUGAUCCTT against Mettl15 the z-score was inactive: -0.671.
With GCUCCCUACUUUACAUAAATT against Best3 the z-score was inactive: -0.856.
For GCUGCCAAUACAAAUUGUCTT against Nlrp9a, the z-score was inactive: 0.428.
For GCCUGUAAUCCCAUCAUCUTT against Taar5, the z-score was inactive: -0.932.
In the case of GGCUCAACGGGAUUACUUUTT against Pgd, the z-score is reported as inactive: -0.578.
In the case of GCAGAUUCGCUGCCUGAUGTT against Snapc4, the z-score is reported as inactive: -0.917.
With GGAGCAGGUGUUGAAAGACTT against Gtf2a1l the z-score was inactive: 1.55.
In the case of CCAAGAUGCACAGUGAUAATT against Pknox2, the z-score is reported as inactive: -0.925.
For “GGUUAGGCACAAAUAAGUUTT against B230206H07Rik”, the z-score was inactive: 1.08.
With GGCUCUGAAUAAACUCCUCTT against Olfr1013 the z-score was inactive: -1.22.
For CCCAGAAUUUGAGUUACUCTT against BC107364, the z-score was inactive: 0.383.
In the case of GGGUGACUGGAAUGACAUCTT against Galnt2, the z-score is reported as inactive: -0.325.
In the case of CCAACUAUGCCAUCAAUAATT against Ttll13, the z-score is reported as inactive: -0.318.
For CCUCCUGCCACAUUCUUUCTT against AU022252, the z-score was inactive: 0.91.
For CCAGUUACUAUGAGAAUGUTT against Yars, the z-score was inactive: 0.0674.
In the case of GGUCAUGAUGGAAUGAGAATT against Niban2, the z-score is reported as inactive: -0.0357.
For GGCCUUCCUUUUCUAUAGATT against Foxd2, the z-score was inactive: -0.000768.
With GUUUGGCUCACUGUGCUGGTT against Gjc2 the z-score was inactive: -0.698.
In the case of CCAUCUAUGGACCCGUAACTT against Ftdc2, the z-score is reported as inactive: 1.92.
With CCGGAGUUGAAACCUAAAATT against Hmgn5 the z-score was inactive: 0.524.
For CCAAAUAGAGAGCCUAAAUTT against Loxl2, the z-score was inactive: -0.173.
In the case of CCAUAUUUUACCCAAAAGCTT against Prune1, the z-score is reported as inactive: -1.04.
For GGAGAGCACCGAUGAAAAUTT against Mcam, the z-score was inactive: 0.239.
For CCUACCAUACCAUGAGCAGTT against Pou4f3, the z-score was inactive: 1.52.
In the case of GCCCGUUACUAUUGUUGAGTT against Incenp, the z-score is reported as inactive: 0.149.
In the case of GACCAGAUUCUUACUUUGGTT against Olfr9, the z-score is reported as inactive: 0.296.
In the case of CCUAUGACUGUAUGUUUUGTT against Hnrnpr, the z-score is reported as inactive: 0.577.
In the case of CCAGGAAUAGAUAAACUCUTT against Olfr120, the z-score is reported as inactive: -0.307.
In the case of GGAAAAUCUUAGGAAGAUGTT against Elf4, the z-score is reported as inactive: -0.39.
In the case of CCGAGAGUGCUGGAUGAUATT against Tnfaip8l1, the z-score is reported as inactive: -0.598.
With GGACGGGACUUACAUAGUGTT against Hsfy2 the z-score was inactive: 0.373.
In the case of GGAUGUCAGUAAUCAAUAGTT against Oxct1, the z-score is reported as inactive: -0.498.
